Drawing on the supplement of paper PMC8256030, this text covers percent viability for 39 compounds.

The structures appear in SMILES notation. Values joined by “and” are separate entries in the source; they are usually repeats but may differ in a detail not shown here. Equal values may be shown once. The list shows a part of the results. Single values are uncertain here, since repeats match poorly.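 HEK293T cells were given each compound shortly before transfection with a reporter in which red mCherry is followed by the SARS-CoV-2 frameshift element and then GFP in the −1 frame, so GFP appears only after frameshifting.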

In the test the test system is HEK293T. In words: percent viability (nuclei count) relative to control; higher = more viable cells. Particulars: 10 µM; 24 h.
Consider `CCN(CCCc1ccccc1)CCCc1ccccc1`, for which the percent viability came to 34.1%.
`O=[N+]([O-])c1cncn1CCN1CCOCC1` [nimorazole]: the percent viability is 41%.
In the case of `COc1nc(C)nc(Cl)c1NC1=NCCN1` [moxonidine], the percent viability was 96.2%.
Then `CCCC1(CC(=O)O)OCCc2c1[nH]c1ccccc21` (centres undefined) [prodolic acid], with 169%; and `CCCCCCCCCCCCCCCC[N+](C)(C)C` [cetrimonium bromide], with 106%; and `C/C=C/C1=C(C(=O)O)N2C(=O)[C@@H](NC(=O)[C@H](N)c3ccc(O)cc3)[C@H]2SC1`, with 192%.
In the case of `CCC(C(=O)O)c1ccc(-c2ccccc2)cc1` (centres undefined) [xenbucin], the percent viability turned out to be 101%.
In the case of `CC[C@H](C)[C@@H]([C@@H](CC(=O)N1CCC[C@H]1[C@H](OC)[C@@H](C)C(=O)NCCc1ccccc1)OC)N(C)C(=O)[C@@H](NC(=O)[C@H](C(C)C)N(C)C)C(C)C` [soblidotin], the percent viability is 21.3%.
For `O=C(CCNNC(=O)c1ccncc1)NCc1ccccc1` [nialamide], the percent viability is 233% and 318%.
Regarding `CCN(CC)CCOC(=O)C1(c2ccccc2)CCCC1` [caramiphen], the percent viability came to 102%.
As to `O=C(O)c1ccccc1OP(=O)(O)O` [fosfosal], the percent viability amounted to 351%.
For the compound `CCC(C)(Oc1ccc(C2(c3ccc(OC(C)(CC)C(=O)O)cc3)CCCCC2)cc1)C(=O)O` (centres undefined) [clinofibrate], the percent viability is 106%.
Next, `COc1nc(N)nc2c1ncn2[C@@H]1O[C@H](CO)[C@@H](O)[C@@H]1O` [nelarabine]: 262%.
As to `Cc1ncsc1CCCCl` [cloprothiazole], the percent viability amounted to 132%.
As to `O=C(O)c1ccc(-n2nc(-c3ccccc3O)nc2-c2ccccc2O)cc1` [deferasirox], the percent viability came to 146%.
With `CC(C)C[C@H](NC(=O)[C@@H](COC(C)(C)C)NC(=O)[C@H](Cc1ccc(O)cc1)NC(=O)[C@H](CO)NC(=O)[C@H](Cc1c[nH]c2ccccc12)NC(=O)[C@H](Cc1cnc[nH]1)NC(=O)[C@@H]1CCC(=O)N1)C(=O)N[C@@H](CCCNC(=N)N)C(=O)N1CCC[C@H]1C(=O)NNC(N)=O` [Goserelin], the percent viability is 270% and 254%.
With `Cc1cc(C)[n+](/N=C(\[O-])c2ccc(Cl)c(S(N)(=O)=O)c2)c(C)c1` [besulpamide], the percent viability worked out at 341%.
Then `Cc1ccc2nc(N)[nH]c(=O)c2c1Sc1ccncc1` [nolatrexed], with 324%; and `CC(Cc1ccccc1)N(C)C(=O)Cn1nc(-c2ccccc2)ccc1=O` (centres undefined) [isamfazone], with 160%.
Then `CN1CCN(c2cc3c(nn2)Oc2ccccc2N3C)CC1` [pipofezine], with 269%.
Consider `C[C@@H]1C[C@H]2[C@@H]3C[C@H](F)C4=CC(=O)C=C[C@]4(C)[C@@]3(F)[C@@H](O)C[C@]2(C)[C@@]1(O)C(=O)COC(=O)C(C)(C)C` [Locorten], for which the percent viability amounted to 216%.
Then `CNC(=O)COc1cc2cc(Nc3nc(N4C[C@H](C)C[C@H](C)C4)ncc3Cl)ccc2n(C)c1=O`, with 277%; and `Cn1c([N+](=O)[O-])cnc1COC(N)=O` [ronidazole], with 163%.
Next, `N=C(N)c1ccc(N=NNc2ccc(C(=N)N)cc2)cc1`: 356%.
Then `OCCN(CCO)c1nc(N2CCCCC2)c2nc(N(CCO)CCO)nc(N3CCCCC3)c2n1` [dipyridamole], with 218% and 132%.
With `CCCCCCCCCCCCCCCC(=O)NCCC[N+](C)(C)CC(=O)[O-]` [pendecamaine], the percent viability stood at 208%.
`CC(N)(Cc1ccc(O)cc1)C(=O)O` (stereo not drawn) [racemetirosine]: the percent viability was determined as 197%.
Take `CCCCC[C@H](O)/C=C/[C@@H]1c2cc(CCCCC(=O)O)n(-c3ccccc3)c2C[C@H]1O` [piriprost]: the percent viability is 221%.
Then `CNC(=O)COc1cc2cc(Nc3nc(N4CCC(C(=O)N(C)C)CC4)ncc3Cl)cc(OC)c2n(C)c1=O`, with 62.3%; and `CCC1=C[C@@H]2CN(C1)Cc1c([nH]c3ccccc13)[C@@](C(=O)OC)(c1cc3c(cc1OC)N(C)[C@H]1[C@@](O)(C(=O)OC)[C@H](OC(C)=O)[C@]4(CC)C=CCN5CC[C@]31[C@@H]54)C2` [Vinorelbine], with 18.5%.
Turning to `CCOCCn1cc(C(=O)Nc2ccc(-n3nc(-c4cccnc4)cc3C(F)(F)F)cn2)ccc1=O`, the percent viability turned out to be 157%.
In the case of `CC(=O)c1cc2cccc(OCC(O)CNC(C)C)c2o1` (centres undefined) [befunolol], the percent viability was determined as 349%.
Take `CCc1cc(Cl)c(OC)c(C(=O)NC[C@@H]2CCCN2CC)c1O` [eticlopride]: the percent viability is 110%.
For the compound `C[C@@H](O[C@H]1OCCN(Cc2nn(P(=O)(O)O)c(=O)[nH]2)[C@H]1c1ccc(F)cc1)c1cc(C(F)(F)F)cc(C(F)(F)F)c1` [Fosaprepitant], the percent viability turned out to be 264%.
Take `O=C1c2cc(Cl)ccc2OC2CCON12` (centres undefined) [seclazone]: the percent viability worked out at 270%.
Take `COc1ccc2cc(CCC(C)=O)ccc2c1` [nabumetone]: the percent viability was 207% and 343%.
Next, `CC(=O)OCC1=C(C(=O)O)N2C(=O)[C@@H](NC(=O)Cc3cccs3)[C@H]2SC1`: 287%; `NCCC(O)(P(=O)(O)O)P(=O)(O)O` [pamidronic acid]: 242%; `CN(C)CC/C=C1/c2ccccc2Sc2ccc(Cl)cc21` [chlorprothixene]: 400%.
